# PubChem BioAssay AID686938, Drosophila RNAi Screening Center, 2013
# Assay: 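Knock-downs reducing store-operated calcium influx in Drosophila cells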 (primary screen)
# Cells: Drosophila S2R+ cells
# Reagent: long dsRNA against Drosophila genes, about 0.25 µg dsRNA per well, roughly 10,000 cells
# Time to read-out: 5 days of knock-down before the calcium assay
# Challenge: thapsigargin (SERCA pump blocker) to empty calcium stores; entry signal taken 4 min after adding it
# Measurement: 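Per-well fluo-4 fluorescence in two replicates, unnormalised, measured in resting cells and 4 min after store depletion by the SERCA blocker thapsigargin; ratio of the two present in few wells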
# Direction: calcium entry signal: higher = stronger calcium signal after store depletion; resting calcium signal: higher = higher resting calcium signal
# Hit rule: 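Hit if the duplicate-averaged plate z-score for entry over resting signal is under −3; wells with weak total dye signal (Fmax z < −2) or more than 5 off-targets removed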
# Meaning of the calls: active = strongly reduced calcium entry; inactive = no strong reduction
# The deposit covers about 23,000 reagents; below is a random part of those that have a named target and a result. In the full data, 75 (0.33%) got an active call. 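Raw plate signals without normalisation; calls rest on plate z-scores that were not deposited; ratio present for only 364 wells.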 The record does not give: the dose of the treatment.
Target gene,DRSC id,"calcium entry signal, replicate 1 (fluorescence units)","calcium entry signal, replicate 2 (fluorescence units)","resting calcium signal, replicate 1 (fluorescence units)","resting calcium signal, replicate 2 (fluorescence units)",Call
CG3036,DRSC00260,3.75e7,3.43e7,2.01e7,1.65e7,inactive
CG3036,DRSC00562,3.52e7,,1.63e7,,inactive
CG3687,DRSC06850,4.21e7,5.49e7,1.74e7,2.39e7,inactive
TyrR (Tyramine receptor),DRSC13259,3.58e7,3.06e7,1.86e7,1.57e7,inactive
TyrR (Tyramine receptor),DRSC16242,1.76e7,2.78e7,2.96e7,1.15e7,inactive
CG16741,DRSC06622,3.45e7,5.02e7,1.59e7,2.44e7,inactive
Osi5 (Osiris 5),DRSC12276,4.87e7,4.06e7,2.14e7,1.74e7,inactive
CG12464,DRSC06156,3.76e7,4.35e7,1.95e7,1.84e7,inactive
Npc2h (Niemann-Pick type C-2h),DRSC14297,4.28e7,6.25e7,2.13e7,2.71e7,inactive
D (Dichaete),DRSC11132,4.63e7,6.21e7,2.12e7,2.64e7,inactive
Rab11,DRSC16809,3.79e7,4.40e7,7.06e7,2.06e7,inactive
Lsp2 (Larval serum protein 2),DRSC09841,2.77e7,4.68e7,1.52e7,1.87e7,inactive
Lsp2 (Larval serum protein 2),DRSC11216,2.76e7,4.24e7,1.49e7,1.91e7,inactive
CG8170,DRSC07087,4.15e7,4.03e7,1.90e7,1.79e7,inactive
Pym (Partner of Y14 and Mago),DRSC22492,3.28e7,2.25e7,2.05e7,1.21e7,inactive
Pym (Partner of Y14 and Mago),DRSC23017,4.96e7,3.40e7,2.28e7,1.40e7,inactive
Gpa2 (Glycoprotein hormone alpha 2),DRSC21071,5.19e7,4.77e7,2.44e7,1.87e7,inactive
elfless,DRSC02451,4.64e7,3.77e7,1.98e7,1.79e7,inactive
mts (microtubule star),DRSC03574,3.03e7,,2.21e7,,active
path (pathetic),DRSC10361,2.58e7,3.40e7,1.30e7,1.44e7,inactive
Brr2 (Brr2 U5 snRNP complex subunit),DRSC10559,2.88e7,2.09e7,2.56e7,1.21e7,inactive
CG3335,DRSC10358,1.92e7,2.42e7,1.25e7,1.45e7,inactive
CG31347,DRSC21582,2.87e7,3.52e7,1.70e7,1.55e7,inactive
Ugt36F1 (UDP-glycosyltransferase family 36 member F1),DRSC02601,3.34e7,4.03e7,1.63e7,1.67e7,inactive

Quoted from the entries so far for reference:
Target gene,DRSC id,"calcium entry signal, replicate 1 (fluorescence units)","calcium entry signal, replicate 2 (fluorescence units)","resting calcium signal, replicate 1 (fluorescence units)","resting calcium signal, replicate 2 (fluorescence units)",Call
CG16741,DRSC06622,3.45e7,5.02e7,1.59e7,2.44e7,inactive
Osi5 (Osiris 5),DRSC12276,4.87e7,4.06e7,2.14e7,1.74e7,inactive
CG12464,DRSC06156,3.76e7,4.35e7,1.95e7,1.84e7,inactive
